Data as given in PMC7246865.
No constants are given. Whether binding was seen depends on the method and setting. Binding seen in cells or lysates may run through a third protein. Some binding calls cover weakened binding; strength is not graded here.

Sequences of proteins named here, by UniProt entry; tags and fusion partners are left off.
UniProt A7MBG4: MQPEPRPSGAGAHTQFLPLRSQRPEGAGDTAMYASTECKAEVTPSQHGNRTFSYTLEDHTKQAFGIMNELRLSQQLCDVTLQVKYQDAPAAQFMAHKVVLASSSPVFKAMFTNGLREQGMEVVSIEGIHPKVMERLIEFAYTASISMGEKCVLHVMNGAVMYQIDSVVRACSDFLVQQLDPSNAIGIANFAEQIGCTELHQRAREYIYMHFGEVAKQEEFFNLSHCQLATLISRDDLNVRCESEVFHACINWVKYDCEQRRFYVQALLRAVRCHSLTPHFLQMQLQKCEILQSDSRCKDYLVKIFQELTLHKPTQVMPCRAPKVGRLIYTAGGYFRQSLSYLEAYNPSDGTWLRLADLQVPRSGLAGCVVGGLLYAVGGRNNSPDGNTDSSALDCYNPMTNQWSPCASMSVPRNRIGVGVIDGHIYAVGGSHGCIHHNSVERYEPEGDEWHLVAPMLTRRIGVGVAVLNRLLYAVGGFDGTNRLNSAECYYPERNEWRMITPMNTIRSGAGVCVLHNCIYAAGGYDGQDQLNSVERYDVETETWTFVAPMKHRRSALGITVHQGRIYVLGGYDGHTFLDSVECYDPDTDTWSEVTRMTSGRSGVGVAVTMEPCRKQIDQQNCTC

Target: P62 (bovine (endogenous in BMECs)) (UniProt Q32PJ9)
Assay: co-IP; BMEC lysate (IP lysis/wash buffer) incubated with P62 antibody, captured on Pierce protein A/G magnetic beads, low pH elution, Western blot; cells with activation of GPR109A (niacin)

binding: binds
Substance: Keap-1 (from UniProt A7MBG4 1-624)
